The results in this text go back to the supplement of paper PMC10727501.

The list shows a part of the results. This data set is noisy: repeats of one test often differ as much as different tests do.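 Researchers measured free-swimming zebrafish larvae's O-bend response probability to dark flashes (naive: first five; training: remaining flashes of four 60-flash blocks; test: later 60-flash block) and OMR turning toward alternating leftward/rightward LED motion. Six treated larvae were compared to sixty 0.1% DMSO controls, with |SSMD|≥2 marking a hit.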

In this assay the test system is Danio rerio larvae (5 dpf, TLF). In words: Prob-Test (SSMD vs DMSO vehicle); higher = higher than vehicle (e.g. higher dark-flash O-bend response probability, or better optomotor performance). To be noted: 10 µM; pre-incubation: 30-90 min.
Consider `CCc1cc(C(N)=S)ccn1` [Ethionamide], for which the Prob-Test is 0.493. The result for `COc1ccc(-c2oc3c(CC=C(C)C)c(OC4O[C@H](CO)[C@@H](O)[C@H](O)[C@H]4O)cc(O)c3c(=O)c2OC2O[C@@H](C)[C@H](O)[C@@H](O)[C@@H]2O)cc1` (stereo partly specified) [Icariin] reads 0.105; that for `CN(C)Cc1ccc(S(=O)(=O)n2ccc(/C=C/C(=O)NO)c2)cc1` [Resminostat], 0.291; that for `NC(=O)Nc1sc(-c2ccc(F)cc2)cc1C(N)=O`, 0.26. The result for `CC(=O)/N=c1\sc(S(N)(=O)=O)nn1C` [Methazolamide] reads -0.316.

Take `CC(C)c1ccccc1Cc1cc(C(=O)Nc2ccc(S(=O)(=O)c3ccccc3C(C)(C)C)cc2)c(O)c(O)c1O`: the Prob-Test was -0.298. `COc1ccc([C@@H]2CC(=O)c3c(O)cc(O[C@@H]4O[C@H](CO[C@@H]5O[C@@H](C)[C@H](O)[C@H](O)[C@H]5O)[C@@H](O)[C@H](O)[C@H]4O)cc3O2)cc1O` [Hesperidin] gave a Prob-Test of 0.0163. For `O=C(CCCCCN1C(=O)c2cccc3cccc(c23)C1=O)NO` [Scriptaid] the value was 0.581; for `CC(=O)SCC(Cc1ccccc1)C(=O)NCC(=O)OCc1ccccc1` (stereo unspecified) [Racecadotril], 0.627; for `COc1ccccc1OCC(O)CN1CCN(CC(=O)Nc2c(C)cccc2C)CC1.Cl.Cl` (stereo unspecified) [Ranolazine 2HCl], -0.07.

`O=C([O-])c1ccccc1[O-].[Bi+3].[OH-]` [Bismuth Subsalicylate]: the Prob-Test was -0.203.
